The results in this text go back to PMC5882309.

By UniProt entry, the sequences of proteins in these tests, tags left out.
UniProt P05627: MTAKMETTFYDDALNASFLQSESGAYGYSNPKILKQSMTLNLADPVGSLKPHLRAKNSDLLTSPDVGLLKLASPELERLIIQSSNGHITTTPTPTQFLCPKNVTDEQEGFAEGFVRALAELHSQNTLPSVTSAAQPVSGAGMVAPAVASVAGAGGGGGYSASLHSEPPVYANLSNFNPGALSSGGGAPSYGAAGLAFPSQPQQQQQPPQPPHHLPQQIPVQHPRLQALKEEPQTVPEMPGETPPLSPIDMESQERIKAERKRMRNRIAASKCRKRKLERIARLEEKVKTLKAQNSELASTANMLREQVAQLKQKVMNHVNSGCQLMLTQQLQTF
UniProt P05412: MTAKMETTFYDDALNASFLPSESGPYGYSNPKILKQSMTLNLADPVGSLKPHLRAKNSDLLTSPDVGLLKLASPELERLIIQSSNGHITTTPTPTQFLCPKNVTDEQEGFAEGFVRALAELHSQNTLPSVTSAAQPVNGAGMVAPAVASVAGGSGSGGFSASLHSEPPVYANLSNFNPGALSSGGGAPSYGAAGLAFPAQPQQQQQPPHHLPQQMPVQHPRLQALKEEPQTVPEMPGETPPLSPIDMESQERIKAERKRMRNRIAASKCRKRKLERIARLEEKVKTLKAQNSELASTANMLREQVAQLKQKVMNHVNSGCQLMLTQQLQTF

These are yes or no findings as the source states them, for the method shown. Binding seen in cells or lysates may run through a third protein. Some entries that bind do so weakly or less than the wild type.

Experiment in all cases: co-IP; 5x10^6 cells lysed in 1x RIPA buffer with protease inhibitors; 500 ug lysate with 2 ug anti-BATF3 antibody (3H1) for 1 hour at 4°C, then protein A/G-agarose overnight at 4°C; Western blot for BATF3, JUN and Hsp70
In test [1] the target is T1, human BATF3, retrovirally expressed in murine BATF3-induced B-cell tumor cell lines (T1-T3) (human) (UniProt Q9NR55).
T1 sequence: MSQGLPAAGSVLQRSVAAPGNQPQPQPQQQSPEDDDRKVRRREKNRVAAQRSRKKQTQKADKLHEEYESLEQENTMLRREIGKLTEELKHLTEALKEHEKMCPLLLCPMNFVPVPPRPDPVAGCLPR

In test [2] the target is T2, basic leucine zipper protein ATF-like 3 (BATF3), endogenous in HL cell line L428 (human (endogenous in L428)) (UniProt Q9NR55).
T2 sequence: T1 sequence

Test [3] concerns the target T3, human BATF3, retrovirally expressed in HL cell line L428 (human) (UniProt Q9NR55).
T3 sequence: T1 sequence

In the case of “JUN, endogenous in murine BATF3-induced B-cell tumor cell lines (T1-T3) (from UniProt P05627 1-334)”, in test [1], the binding result is listed as “binds”.

Take “JUN, endogenous in HL cell line L428 (from UniProt P05412 1-331)”: the binding entry in test [2] and in test [3] was “binds” each time.
